The results in this text go back to paper doi:10.1101/2025.01.09.632284.

By UniProt entry, the sequences of proteins in these tests, tags left out. Where a name states a change or a piece, a line headed by the entry shows the natural chain unless it says otherwise.
UniProt P07711: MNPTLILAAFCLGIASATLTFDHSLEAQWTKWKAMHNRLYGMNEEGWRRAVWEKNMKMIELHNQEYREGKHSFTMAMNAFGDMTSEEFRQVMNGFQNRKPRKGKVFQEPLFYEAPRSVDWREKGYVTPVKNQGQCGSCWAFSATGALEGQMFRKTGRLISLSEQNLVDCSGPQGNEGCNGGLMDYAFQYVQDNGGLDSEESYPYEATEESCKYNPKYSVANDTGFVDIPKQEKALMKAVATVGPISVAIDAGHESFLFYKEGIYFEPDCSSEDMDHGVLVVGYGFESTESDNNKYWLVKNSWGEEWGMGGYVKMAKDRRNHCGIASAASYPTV
UniProt Q14974: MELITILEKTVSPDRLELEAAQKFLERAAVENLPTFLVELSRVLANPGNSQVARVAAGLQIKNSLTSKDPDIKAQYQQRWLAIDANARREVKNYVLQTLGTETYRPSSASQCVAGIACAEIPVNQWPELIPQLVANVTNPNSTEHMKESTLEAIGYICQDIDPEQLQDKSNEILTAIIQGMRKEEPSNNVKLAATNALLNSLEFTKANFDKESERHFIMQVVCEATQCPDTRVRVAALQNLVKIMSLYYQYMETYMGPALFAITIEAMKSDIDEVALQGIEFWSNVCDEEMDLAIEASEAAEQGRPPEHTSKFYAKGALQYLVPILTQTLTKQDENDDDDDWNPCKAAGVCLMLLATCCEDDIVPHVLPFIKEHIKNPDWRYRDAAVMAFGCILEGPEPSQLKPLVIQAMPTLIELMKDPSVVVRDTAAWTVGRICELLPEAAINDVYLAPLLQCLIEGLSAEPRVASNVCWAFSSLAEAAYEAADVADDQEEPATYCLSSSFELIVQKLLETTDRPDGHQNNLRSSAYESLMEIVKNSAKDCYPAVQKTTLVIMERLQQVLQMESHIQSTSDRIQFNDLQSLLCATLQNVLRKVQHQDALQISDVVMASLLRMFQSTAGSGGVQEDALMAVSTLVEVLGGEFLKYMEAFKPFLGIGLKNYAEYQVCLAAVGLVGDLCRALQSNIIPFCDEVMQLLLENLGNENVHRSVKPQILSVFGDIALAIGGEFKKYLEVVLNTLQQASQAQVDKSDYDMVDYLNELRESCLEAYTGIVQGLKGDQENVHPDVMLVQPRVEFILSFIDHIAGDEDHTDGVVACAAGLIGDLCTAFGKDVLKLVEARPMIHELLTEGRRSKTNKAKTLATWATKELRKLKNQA
UniProt P52294: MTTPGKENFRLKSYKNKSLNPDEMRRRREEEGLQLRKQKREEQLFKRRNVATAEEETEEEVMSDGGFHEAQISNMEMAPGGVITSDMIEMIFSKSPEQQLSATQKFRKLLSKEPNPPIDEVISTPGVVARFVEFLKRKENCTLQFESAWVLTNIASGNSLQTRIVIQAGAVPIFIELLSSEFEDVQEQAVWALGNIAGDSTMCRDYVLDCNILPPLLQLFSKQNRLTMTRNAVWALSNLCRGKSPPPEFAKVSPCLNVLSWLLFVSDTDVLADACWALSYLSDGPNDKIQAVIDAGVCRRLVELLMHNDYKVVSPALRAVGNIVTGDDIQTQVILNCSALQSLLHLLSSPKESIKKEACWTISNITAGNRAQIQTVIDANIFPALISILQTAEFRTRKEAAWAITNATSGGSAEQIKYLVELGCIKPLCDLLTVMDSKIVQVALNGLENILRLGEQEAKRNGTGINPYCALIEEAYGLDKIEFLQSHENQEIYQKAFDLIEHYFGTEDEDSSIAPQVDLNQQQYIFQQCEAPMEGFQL

Results are given in words; binding and its absence hold for the method and conditions named. Binding seen in cells or lysates may run through a third protein. A result given as binding can be weak or reduced; the word gives no strength.

Assay [1] addresses Flag-tagged full length CTSL (human cathepsin L) (human) (UniProt P07711). Nature of the assay: co-IP.
For assay [2], the target named is Importin B1 (KPNB1) (human (endogenous in HEK293)) (UniProt Q14974). Nature of the assay: co-IP.

For KPNA1 (from UniProt P52294 1-538), in assay [1], the binding result was “no binding”. Regarding “Importin B1 (KPNB1) (from UniProt Q14974 1-876)”, in assay [1], the binding result is reported as “binds”. As for “Flag-tagged full length CTSL (human cathepsin L) (from UniProt P07711)”, the binding entry in assay [2] is recorded as “binds”.
